Laboratory results taken from PubChem BioAssay AID540276 (National Center for Advancing Translational Sciences (NCATS), 2011).
The whole screen tested about 300,000 compounds, of which about 5,400 (1.8%) were called active. The inconclusive results got no clear call from the source; some entries with a clear call stand among them for comparison. Calls come from the whole dose curve; tested in HEK293 cells. A potency beside an inconclusive call is a rough fit, not a confirmed value.

Test: qHTS for inhibitors of binding or entry into cells for Marburg Virus
Conditions: Marburg virus pseudotyped entry inhibition, cell reporter; activity change, negative = inhibition: at 37.8 µM (top of the series) unless noted
% is set by controls: 0 for no effect and ±100 for the full control effect; potency is the fitted concentration of half-maximal effect.

Row | Structure (SMILES) | Potency | activity change, negative = inhibition
1 | CC1CC(NS(=O)(=O)c2cc3c4c(c2)CCN4C(=O)CC3)CC(C)(C)C1 (stereo not given) | inconclusive: 35.5 µM [inhibitor, single point] | 
2 | c1cc2c3c(cccc3c1)NC1(CCCC1)N2 |  | inactive: -22%
3 | CCc1ccc(OCC(=O)Nc2ccc(S(=O)(=O)N3CCOCC3)cc2)cc1 | inconclusive: 5.62 µM [activator, single point] | 
4 | CCc1ccc(CN2CCC(n3nccc3NC(=O)c3ccccc3C)CC2)cc1 |  | inconclusive: 4.1% [activator] [at 46.1 µM]
5 | COc1ccc(CNS(=O)(=O)NCc2ccc(OC)c(OC)c2)cc1 |  | inactive: -29% [at 46.1 µM]
6 | COc1cccc(C(=O)O/N=C(\N)c2ccncc2)c1 | inconclusive: 29.1 µM [activator, single point] | 
7 | Cc1ccc(S(=O)(=O)N(C)C)cc1NC(=O)C1CCCN(C(=O)c2ccc(Cl)cc2)C1 (stereo not given) | inconclusive: 20 µM [inhibitor, partial curve, poor fit] | 
8 | COc1ccc(COCC(O)CN2CCC(CN3C(=O)c4cccc5cccc(c45)C3=O)CC2)cc1OC (stereo not given) | active: 9.2 µM | 
9 | Cc1ccc(S(=O)(=O)Cc2nc3ccccc3c(=O)[nH]2)cc1 | inconclusive: 7.08 µM [activator, partial curve, poor fit] | 
10 | COc1ccccc1CNC(=O)c1cccnc1 |  | inactive: -0.508%
11 | CCCCN(C)C(=S)Nc1ccc(Oc2ccccc2)cc1 | inconclusive: 5.62 µM [activator, single point] | 
12 | COc1nc(NCCO)nc(Nc2ccccc2F)n1 | inconclusive: 5.62 µM [activator, single point] | 
13 | CCOc1ccc(C(=O)Nc2cccc(-c3nc4cccnc4o3)c2)cc1Cl |  | inactive: 8.18%
14 | C/C(CC(=O)Nc1cccc(Cl)c1Cl)=N\NC(=O)c1ccccc1C | inconclusive: 10 µM [inhibitor, partial curve, poor fit] | 
15 | Cc1ccc(-c2cnc3cc(C)nn3c2)cc1 | inconclusive: 5.01 µM [inhibitor, full curve, poor fit] | 
16 | CC(C)(C)n1ncc2c(=O)n(CC(=O)c3ccc(Cl)cc3)cnc21 | inconclusive: 1.26 µM [activator, full curve, poor fit] | 
17 | CCc1nnc(NC(=O)CCC(=O)N2CCN(CCOc3ccc(C)cc3)CC2)s1 | inconclusive: 10 µM [inhibitor, partial curve, poor fit] | 
18 | COc1cc2c(cc1OC)n(Cc1cccc(C(F)(F)F)c1)c(=O)n1nc(-c3ccccc3)nc21 |  | inactive: -0.518% [at 46.1 µM]
19 | CC(C)(C)c1ccc(OCCOCCn2cnc3ccccc3c2=O)cc1 |  | inactive: -2.31%
20 | O=c1cccccc1NCc1ccccc1 |  | inactive: 9.93%
21 | O=C(CNC(=S)N(Cc1ccccc1)Cc1ccccc1F)NCc1ccc(Cl)cc1 | inconclusive: 15.8 µM [inhibitor, partial curve, poor fit] | 
22 | O=C(NCc1ccncc1)Nc1ccc(F)cc1 |  | inactive: 5.14%
23 | CN(C)CCN(C(=O)c1ccc2c(c1)CCCC2)c1nc2cc3c(cc2s1)OCCO3 | inconclusive: 17.8 µM [inhibitor, single point] | 
24 | Cc1cc(C)c2c(N)c(C(=O)N3CCN(c4ncccn4)CC3)sc2n1 | inconclusive: 17.8 µM [activator, single point] | 

Row | Structure (SMILES) | Potency | activity change, negative = inhibition
25 | O=C(c1ccccc1OCc1ccccc1Br)N1CCN(c2ncccn2)CC1 | inconclusive: 29.1 µM [inhibitor, single point] | 
26 | Cn1cc(C(=O)Nc2ccc3c(c2)CCC3)cn1 | inconclusive: 3.55 µM [activator, single point] | 
27 | Cc1ccc(C2Nc3ccccc3-c3nc4ccccc4n32)o1 (stereo not given) |  | inactive: 2.34%
28 | CCC(=NCCCn1ccnc1)c1c(O)n(-c2ccccc2)c(=O)[nH]c1=O |  | inactive: 14.4% [at 46.1 µM]
29 | CC(C)(C)OC(=O)N1CCC[C@H]1c1nnc(SCc2cccc(Cl)c2)o1 | inconclusive: 31.6 µM [inhibitor, single point] | 
30 | COc1ccc(CNc2nc3c(-c4ccccc4)nnn3c3ccccc23)cc1 |  | inactive: 29.5% [at 46.1 µM]
31 | C#CCn1c(=NC(=O)c2sc3ccccc3c2Cl)sc2cc(S(N)(=O)=O)ccc21 | inconclusive: 0.164 µM [activator, single point] | 
32 | O=c1[nH]c2cc3c(cc2cc1CN(Cc1ccco1)C(=S)NCCCN1CCOCC1)OCCO3 | inconclusive: 11.2 µM [inhibitor, partial curve, poor fit] | 
33 | CC(C)(C)c1nc(C(C)(C)C)c(Br)c(=O)[nH]1 | inconclusive: 14.1 µM [inhibitor, partial curve, poor fit] | 
34 | O=C(Oc1c(Br)cc(Br)c2cccnc12)N1CCCCC1 | inconclusive: 35.5 µM [inhibitor, single point] | 
35 | O=C(Nc1ccc(F)cc1)c1csc2c1CCCCC2 | inconclusive: 3.55 µM [activator, single point] | 
36 | C=CCNc1cnn(-c2ccccc2)c(=O)c1Cl |  | inactive: -22.4%
37 | Cc1cccc2cc(C#N)c(N3CCN(C)CC3)nc12 |  | inactive: -16%
38 | COc1ccc(-c2nnc(SC(C(=O)c3c[nH]c4ccccc34)c3ccccc3)n2N)cc1OC (stereo not given) | inconclusive: 22.4 µM [inhibitor, single point] | 
39 | O=C(O)CSc1nnc(Cc2ccccc2)n1Cc1ccccc1 | inconclusive: 0.164 µM [activator, single point] | 
40 | CCOC(=O)c1nn(-c2ccc(Cl)cc2)c2nnc(Cc3ccc(C)cc3)c(=O)n12 |  | inactive: 2.53%
41 | NS(=O)(=O)c1ccc(NC(=S)Nc2ccc(F)c(F)c2)cc1 |  | inactive: -11.5%
42 | C/C(CC(=O)Nc1ccc2c(c1)OCCO2)=N\NC(=O)c1ccccc1F | inconclusive: 7.94 µM [inhibitor, partial curve, poor fit] | 
43 | COc1ccc(CNC(=O)C(c2ccc(O)cc2)N(Cc2ccco2)C(=O)c2snc(C(N)=O)c2N)cc1 (stereo not given) | inconclusive: 12.6 µM [inhibitor, partial curve, poor fit] | 
44 | Cc1ccc2oc(C(=O)Nc3cccc(Cl)c3)cc(=O)c2c1 | inconclusive: 6.31 µM [activator, single point] | 
45 | COc1ccc([N+](=O)[O-])cc1NC(=O)C(C)N(C)Cc1cccc(OC)c1OC (stereo not given) | inconclusive: 14.1 µM [inhibitor, partial curve, poor fit] | 
46 | CCC(=O)N1CCc2cc(Br)cc(S(=O)(=O)NCCCN(C)Cc3ccccc3)c21 | inconclusive: 14.1 µM [inhibitor, partial curve, poor fit] | 
47 | Cn1c(=O)cc(OCCCC(=O)NC2CCCC2)c2ccccc21 |  | inactive: -11.4%
48 | O=C(Nc1ccc2c(c1)oc1ccccc12)c1ccc(Br)o1 |  | inactive: 1.09%

Ordered by count of non-hydrogen atoms (rising): 3 of the compounds above.
Row | Structure (SMILES) | Potency | activity change, negative = inhibition
11 | CCCCN(C)C(=S)Nc1ccc(Oc2ccccc2)cc1 | inconclusive: 5.62 µM [activator, single point] | 
42 | C/C(CC(=O)Nc1ccc2c(c1)OCCO2)=N\NC(=O)c1ccccc1F | inconclusive: 7.94 µM [inhibitor, partial curve, poor fit] | 
40 | CCOC(=O)c1nn(-c2ccc(Cl)cc2)c2nnc(Cc3ccc(C)cc3)c(=O)n12 |  | inactive: 2.53%

Going on with the list:

Row | Structure (SMILES) | Potency | activity change, negative = inhibition
49 | COc1cc(C(=O)NCC2CCCCC2)cc(OC)c1OC |  | inactive: -1.71%
50 | CCN(CC)c1ncnc2sc(C(=O)N3CCN(c4ccccc4)CC3)c(C)c12 | inconclusive: 5.62 µM [inhibitor, single point] | 
51 | Cc1c(C(=O)Nc2nc(-c3ccc(F)cc3)ns2)oc2ccc(Cl)cc12 |  | inactive: 11.1% [at 46.1 µM]
52 | CCOc1ccccc1OC(=O)c1ccco1 | inconclusive: 0.259 µM [inhibitor, full curve, poor fit] | 
53 | CCOC(=O)COC(=O)c1ccc(O)cc1 | inconclusive: 29.1 µM [activator, single point] | 
54 | Cc1cccc2cc(C#N)c(NCCNC(=S)NCCCN3CCOCC3)nc12 | inconclusive: 5.17 µM [inhibitor, partial curve, poor fit] | 
55 | COc1ccc(NC(=S)NCCc2c(C)[nH]c3ccc(OC)cc23)cc1 |  | inactive: -0.272% [at 46.1 µM]
56 | Cc1ccc(NC(=O)c2ccc(Cl)c(S(=O)(=O)Nc3c(C)n(C)n(-c4ccccc4)c3=O)c2)cc1Cl | inconclusive: 0.224 µM [inhibitor, full curve, poor fit] | 
57 | CCCC(CCC)C1=NC2C=CN=CC2=N1 (stereo not given) | inconclusive: 7.94 µM [inhibitor, partial curve, poor fit] | 
58 | Cc1cccc(NC(=O)CSc2nc(-c3ccccc3)c(C#N)c(=O)[nH]2)c1C | inconclusive: 12.6 µM [activator, single point] | 
59 | COc1ccc(C2=COc3ccccc3C(=O)N2)cc1 | inconclusive: 2.82 µM [activator, partial curve, poor fit] | 
60 | COC(=O)c1nn(-c2ccc3c(c2)CCN3C(C)=O)cc1O | inconclusive: 4.61 µM [inhibitor, full curve, poor fit] | 
61 | CC1CC(C)CN(CC(=O)c2cccs2)C1 (stereo not given) |  | inactive: -0.22%
62 | COc1ccc(CCNC(=O)c2cc3c(F)cccc3s2)cc1OC | inconclusive: 25.1 µM [inhibitor, single point] | 
63 | CC12CN3C(O)C(C)(C1)CC(C)(C2)C3O (stereo not given) | inconclusive: 29.1 µM [inhibitor, single point] | 
64 | CCc1nnc(NC(=O)CSc2nc3c(c(=O)n2-c2ccccc2OC)SCC3)s1 | inconclusive: 29.1 µM [inhibitor, single point] | 
65 | COc1ccc(C(=O)NC(=O)Nc2cc(C)ccn2)cc1 | inconclusive: 1.83 µM [inhibitor, full curve, poor fit] | 
66 | CSc1ccccc1C(=O)Nc1nc2ccccc2c(=O)[nH]1 | inconclusive: 23.1 µM [inhibitor, partial curve, poor fit] | 
67 | CCCC(=O)Nc1ccc(C(=O)NN=C(C2CC2)C2CC2)cc1 |  | inactive: -6.98%
68 | CCN(CC)C1=CC(=[N+]2CCCC2)CC(C)(C)C1 | active: 1.26 µM | 
69 | O=C(c1cccs1)N(C(=O)c1cccs1)c1ccc(Br)cn1 | inconclusive: 25.9 µM [inhibitor, single point] | 
70 | Cc1sc(NC(=O)c2cc(-c3ccccc3)nc3ccccc23)c(C(N)=O)c1C | inconclusive: 1.78 µM [inhibitor, partial curve, poor fit] | 
